These are literature values, as cited in US20200003760A1, “IN-VITRO METHODS FOR CLASSIFYING DRUGS ACCORDING TO THEIR POTENTIAL TO CAUSE LIVER CELL INJURY” (Board of Trustees of Michigan State University, priority 2018, published 2020).

The conditions of series [1]: maximal plasma concentration after pharmacologic dosing in human patients; cited from earlier work.
The conditions of series [2]: criteria of Xu et al. (2008); cited from earlier work.

As for `COc1ccc2cc([C@H](C)C(=O)O)ccc2c1` [Naproxen], in series [1], the Cmax (commonly the peak of the concentration-time curve) was 300 µM. In addition, the IDILI liability result in series [2] is “IDILI+”.
